The target in assay [1] is reverse sequence control peptide of NH2htau 26-44. Put plainly: thioflavin T fluorescence; 20 µM peptide in 10 mM phosphate buffer pH 7.4, 100 mM NaCl, 60 µM ThT, 37 °C, without and with TLBE LUV 200 µM; followed up to 48 h; fibril formation; both purified.
Assay [2] shares this target. Put plainly: dynamic light scattering; peptide at nominal 2.5 mg/ml in PBS pH 7.4, centrifuged 10 min at 10 000g and filtered; number-weighted hydrodynamic radius, followed over 12 h; both purified.

These are yes or no findings as the source states them, for the method shown.

The results in this text go back to paper PMC5630290.

Take KLGADTDGEQDQHMTYGGQ [reverse sequence control peptide of NH2htau 26-44]: the binding result in assay [1] was “no binding (tested: 20 µM)”; in assay [2], “no binding (tested: 2.5 mg/ml)”.
